Values of other authors in patent US20230265432A1, “METHODS AND COMPOSITIONS FOR TREATING ACUTE MYELOID LEUKEMIA” (Sanford Burnham Prebys Medical Discovery Institute, priority 2021, published 2023).
At least one structure is not confirmed: it was looked up by name or label, or the drawing left a doubt.

Tests used:
[1] = test system: p300/CBP; settings: cited from earlier work
[2] = test system: SET domain-containing methyltransferases; settings: read-out: IC50 values range; cited from earlier work

| SMILES | IC50 [1] [µM] | IC50 [2] [µM] |
| --- | --- | --- |
| Oc1cc(O)c2cc(O)c(-c3cc(O)c(O)c(O)c3)[o+]c2c1 [Delphinidin (chloride), Delphinidin] | ~30 | – |
| Nc1ncnc2c1ncn2[C@@H]1O[C@H](C[C@@H](N)CC[C@H](N)C(=O)O)[C@@H](O)[C@H]1O [Sinefungin] | – | 0.12 |
